Measured values taken from article doi:10.1101/2021.03.31.437874.
These are yes or no findings as the source states them, for the method shown. Binding seen in cells or lysates may run through a third protein. Here binding means that the protein was enriched with, or labelled near, the bait; the list need not be complete. Sequences can lack the tags named with a protein.

Chains of the proteins cited; added tags and fusions are not shown.
UniProt P18754: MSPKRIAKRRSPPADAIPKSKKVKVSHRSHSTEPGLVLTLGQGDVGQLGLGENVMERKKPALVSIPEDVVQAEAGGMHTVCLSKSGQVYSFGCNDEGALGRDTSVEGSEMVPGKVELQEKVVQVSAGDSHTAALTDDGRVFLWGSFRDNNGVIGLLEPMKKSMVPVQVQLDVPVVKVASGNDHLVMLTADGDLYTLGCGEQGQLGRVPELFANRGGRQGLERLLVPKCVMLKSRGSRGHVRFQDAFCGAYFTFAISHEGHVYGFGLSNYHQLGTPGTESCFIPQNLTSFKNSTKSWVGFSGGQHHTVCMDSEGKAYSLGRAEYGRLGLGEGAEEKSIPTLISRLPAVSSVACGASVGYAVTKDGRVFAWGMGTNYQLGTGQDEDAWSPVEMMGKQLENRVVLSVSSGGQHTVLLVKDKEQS
UniProt P39687: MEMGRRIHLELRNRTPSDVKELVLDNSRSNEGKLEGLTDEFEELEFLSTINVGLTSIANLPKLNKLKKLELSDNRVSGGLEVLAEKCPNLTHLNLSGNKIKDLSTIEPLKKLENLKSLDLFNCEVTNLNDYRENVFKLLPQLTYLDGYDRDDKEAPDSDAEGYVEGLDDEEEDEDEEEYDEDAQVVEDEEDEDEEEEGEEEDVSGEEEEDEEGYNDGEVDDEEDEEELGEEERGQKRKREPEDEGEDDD

Biological target: T1, FLAG-Nup50 N-terminal fragment (aa 1-120 of the human sequence) (human) (UniProt Q9UKX7)
T1 sequence: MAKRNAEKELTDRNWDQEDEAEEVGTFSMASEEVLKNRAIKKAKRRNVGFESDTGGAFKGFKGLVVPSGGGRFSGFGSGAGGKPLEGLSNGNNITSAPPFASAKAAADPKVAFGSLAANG
Experiment: affinity purification with mass spectrometry

Row | binding | Substance
1 | binds | RCC1, endogenous in HEK293T (from UniProt P18754 1-421) (enzyme)
2 | binds | ANP32A, endogenous in HEK293T (from UniProt P39687 1-249)
